# Assay: Observance of treatment (compliance)
# Design: species or system human
# Description: [table] The data analysis was performed using two complementary strategies: the modified intention to treat (mITT) and the per protocol (PP). […] The PP analysis only concerns patients who strictly adhered to the protocol.
structure (smiles),measurement,setting,value
"NC(=O)c1ccc[n+]([C@@H]2O[C@H](COP(=O)([O-])O)[C@@H](O)[C@H]2O)c1 [beta-NMN, nicotinamide mononucleotide]",mean value of compliance,"PP population, period V1-V4 (ranging from 97.8 to 100%)",99.2±1.1%
same,mean compliance value,"mITT population, period V1-V4 (ranging from 92.5 to 100%)",98.4±2.6%
